{"sequences": {"note": "Amino acid sequences for entries named in this document (tags omitted). Residues count along the entry.", "UniProt P70206, residues 28-1242": "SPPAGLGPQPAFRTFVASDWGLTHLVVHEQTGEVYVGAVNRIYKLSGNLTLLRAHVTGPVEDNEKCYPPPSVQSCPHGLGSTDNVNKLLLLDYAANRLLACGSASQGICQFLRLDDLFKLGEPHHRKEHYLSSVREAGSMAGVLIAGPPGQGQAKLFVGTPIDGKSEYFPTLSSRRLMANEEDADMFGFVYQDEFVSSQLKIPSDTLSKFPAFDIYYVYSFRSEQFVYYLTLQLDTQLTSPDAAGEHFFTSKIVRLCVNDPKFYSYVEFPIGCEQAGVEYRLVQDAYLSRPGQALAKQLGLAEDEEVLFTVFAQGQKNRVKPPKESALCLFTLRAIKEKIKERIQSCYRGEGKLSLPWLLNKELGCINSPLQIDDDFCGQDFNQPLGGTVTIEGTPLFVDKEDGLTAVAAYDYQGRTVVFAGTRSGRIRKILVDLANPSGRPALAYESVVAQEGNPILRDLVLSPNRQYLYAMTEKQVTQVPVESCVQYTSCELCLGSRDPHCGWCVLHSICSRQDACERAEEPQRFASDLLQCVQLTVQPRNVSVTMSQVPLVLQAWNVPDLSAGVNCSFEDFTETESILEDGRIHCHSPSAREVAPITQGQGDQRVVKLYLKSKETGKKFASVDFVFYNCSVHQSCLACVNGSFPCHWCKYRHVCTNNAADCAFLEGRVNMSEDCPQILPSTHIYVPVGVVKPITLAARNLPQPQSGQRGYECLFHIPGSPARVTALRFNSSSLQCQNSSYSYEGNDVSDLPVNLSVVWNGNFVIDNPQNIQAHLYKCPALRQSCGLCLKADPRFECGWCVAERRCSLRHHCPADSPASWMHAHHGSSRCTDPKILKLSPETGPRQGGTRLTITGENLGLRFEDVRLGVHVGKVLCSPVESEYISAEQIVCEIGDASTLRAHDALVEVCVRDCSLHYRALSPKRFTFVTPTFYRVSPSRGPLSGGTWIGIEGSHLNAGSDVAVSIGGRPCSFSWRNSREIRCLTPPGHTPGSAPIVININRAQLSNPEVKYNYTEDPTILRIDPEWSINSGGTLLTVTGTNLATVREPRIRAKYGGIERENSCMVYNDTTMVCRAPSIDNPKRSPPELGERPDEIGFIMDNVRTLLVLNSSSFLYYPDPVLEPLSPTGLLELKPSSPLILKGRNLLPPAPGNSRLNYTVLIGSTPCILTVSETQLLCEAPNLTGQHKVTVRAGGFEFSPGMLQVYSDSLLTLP"}, "source": "paper PMC13018599", "binders": {"B1": {"name": "SLIT3-FL-HaloTag (ligand, UniProt Q9WVB4 34-1523)", "chain": "CPTKCTCSAASVDCHGLGLRAVPRGIPRNAERLDLDRNNITRITKMDFAGLKNLRVLHLEDNQVSIIERGAFQDLKQLERLRLNKNKLQVLPELLFQSTPKLTRLDLSENQIQGIPRKAFRGVTGVKNLQLDNNHISCIEDGAFRALRDLEILTLNNNNISRILVTSFNHMPKIRTLRLHSNHLYCDCHLAWLSDWLRQRRTIGQFTLCMAPVHLRGFSVADVQKKEYVCPGPHSEAPACNANSLSCPSACSCSNNIVDCRGKGLTEIPANLPEGIVEIRLEQNSIKSIPAGAFTQYKKLKRIDISKNQISDIAPDAFQGLKSLTSLVLYGNKITEIPKGLFDGLVSLQLLLLNANKINCLRVNTFQDLQNLNLLSLYDNKLQTISKGLFVPLQSIQTLHLAQNPFVCDCHLKWLADYLQDNPIETSGARCSSPRRLANKRISQIKSKKFRCSGSEDYRNRFSSECFMDLVCPEKCRCEGTIVDCSNQKLARIPSHLPEYTTDLRLNDNDISVLEATGIFKKLPNLRKINLSNNRIKEVREGAFDGAAGVQELMLTGNQLETMHGRMFRGLSSLKTLMLRSNLISCVSNDTFAGLSSVRLLSLYDNRITTITPGAFTTLVSLSTINLLSNPFNCNCHMAWLGRWLRKRRIVSGNPRCQKPFFLKEIPIQDVAIQDFTCDGNEESSCQLSPRCPEQCTCVETVVRCSNRGLHALPKGMPKDVTELYLEGNHLTAVPKELSAFRQLTLIDLSNNSISMLTNHTFSNMSHLSTLILSYNRLRCIPVHAFNGLRSLRVLTLHGNDISSVPEGSFNDLTSLSHLALGTNPLHCDCSLRWLSEWVKAGYKEPGIARCSSPESMADRLLLTTPTHRFQCKGPVDINIVAKCNACLSSPCKNNGTCSQDPVEQYRCTCPYSYKGKDCTVPINTCVQNPCEHGGTCHLSENLRDGFSCSCPLGFEGQRCEINPDDCEDNDCENSATCVDGINNYACLCPPNYTGELCDEVIDYCVPEMNLCQHEAKCISLDKGFRCECVPGYSGKLCETNNDDCVAHKCRHGAQCVDEVNGYTCICPQGFSGLFCEHPPPMVLLQTSPCDQYECQNGAQCIVVQQEPTCRCPPGFAGPRCEKLITVNFVGKDSYVELASAKVRPQANISLQVATDKDNGILLYKGDNDPLALELYQGHVRLVYDSLSSPPTTVYSVETVNDGQFHSVELVMLNQTLNLVVDKGAPKSLGKLQKQPAVGSNSPLYLGGIPTSTGLSALRQGADRPLGGFHGCIHEVRINNELQDFKALPPQSLGVSPGCKSCTVCRHGLCRSVEKDSVVCECHPGWTGPLCDQEARDPCLGHSCRHGTCMATGDSYVCKCAEGYGGALCDQKNDSASACSAFKCHHGQCHISDRGEPYCLCQPGFSGHHCEQENPCMGEIVREAIRRQKDYASCATASKVPIMECRGGCGSQCCQPIRSKRRKYVFQCTDGSSFVEEVERHLECGCRACS"}, "B2": {"name": "SLIT3-C-HaloTag (domain or fragment, UniProt Q9WVB4 1117-1523)", "chain": "LLQTSPCDQYECQNGAQCIVVQQEPTCRCPPGFAGPRCEKLITVNFVGKDSYVELASAKVRPQANISLQVATDKDNGILLYKGDNDPLALELYQGHVRLVYDSLSSPPTTVYSVETVNDGQFHSVELVMLNQTLNLVVDKGAPKSLGKLQKQPAVGSNSPLYLGGIPTSTGLSALRQGADRPLGGFHGCIHEVRINNELQDFKALPPQSLGVSPGCKSCTVCRHGLCRSVEKDSVVCECHPGWTGPLCDQEARDPCLGHSCRHGTCMATGDSYVCKCAEGYGGALCDQKNDSASACSAFKCHHGQCHISDRGEPYCLCQPGFSGHHCEQENPCMGEIVREAIRRQKDYASCATASKVPIMECRGGCGSQCCQPIRSKRRKYVFQCTDGSSFVEEVERHLECGCRACS"}}, "target": "extracellular region of PLXNA1, C-terminally fused to a 6X histidine tag (UniProt P70206)", "test": "co-IP; PLXNA1 extracellular region-6xHis co-overexpressed with SLIT3-FL-HaloTag or SLIT3-C-HaloTag in a mouse adipocyte progenitor cell line; immunoprecipitation with a His-tag antibody", "note": "These are yes or no findings as the source states them, for the method shown. Binding seen in cells or lysates may run through a third protein. Some results given as binding are weak or reduced against the parent protein; the word gives no strength. Sequences can lack the tags named with a protein."}
{"binder": "B1", "values": [{"measurement": "binding", "result": "binds"}]}
{"binder": "B2", "values": [{"measurement": "binding", "result": "binds"}]}
